The data set is described as follows: general procedure: solution-phase peptide synthesis; azide method (isoamyl nitrite/HCl); N,N'-dicyclohexylcarbodiimide with N-hydroxy. The settings on record: coupling step, of the theoretical amount, acetate.
On to “BOC--D--Ser--Met--Glu (γ--OBu^t)--His--Phe--Arg--Trp--Gly--Lys(BOC)--Pro--Val--Gly--OH(I)”, for which the step yield is recorded as 78%.

“BOC--D--Ser--Met--Glu--(γ--OBu^t)--His--Phe--Arg--Trp--Gly--Lys- -Pro--Val--Gly--Lys(BOC)--Lys(BOC)--Lys(BOC)--Lys(BOC)--NH2. HCl (II)” registered a step yield of 87%.

As to “Cbz--Glu (OBu^t)--His--Phe--Arg--Trp--Gly--Lys(Boc)--Pro--Val--Gly--OH (I)”, the step yield is on record as 75%.

The values above are taken from patent US4071510 (dated 1978).
